Measured values as given in PubChem BioAssay AID2685 (National Center for Advancing Translational Sciences (NCATS), 2010).
In all, about 320,000 compounds went through this assay and about 2,100 (0.66%) were called active. This list was built around the results that the source calls inconclusive (neither active nor inactive); the mix of calls is not that of the screen. Calls come from the whole dose curve; as a rule, active = well fitted inhibition curve with a large enough effect in the signal ratio, with a control signal flat (not every such curve was filed as active); inconclusive = small, poorly fitted or top-dose-only effect, or effect the other way, or a change in a side signal; inactive = flat fitted curve, though single readings scatter; the % refers to the signal ratio. A potency beside an inconclusive call is a rough fit, not a confirmed value.

Assay: qHTS Assay for Lipid Storage Modulators in Drosophila S3 Cells
Conditions: BODIPY lipid droplet fluorescence, 18-24 h, cells fed with added oleic acid; lipid storage change, negative = inhibition: at 46.1 µM (top of the series) unless noted
Summary of the method: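 Drosophila S3 cells loaded with oleic acid (400 uM, as added) and compounds at several concentrations; lipid droplets imaged by 488-nm laser-scanning cytometry, 500–530 nm intensity and object ratio to cell channel. Percent activity normalized to 20 uM Triacsin C.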
% is set by controls: 0 for no effect and ±100 for the full control effect; potency is the fitted concentration of half-maximal effect.

Potency, inconclusive:
Cc1ccc2nc(N3CCN(C(=O)c4ccc(F)cc4)CC3)c(C#N)cc2c1 20.6 µM [falling, single point]
CCN(CC(=O)Nc1ccccc1OC)C(=O)C1CC2C=CC1C2 (stereo not given) 6.51 µM [rising, single point]
CN(Cc1c(C(=O)N/N=C/c2ccccc2F)nnn1-c1nonc1N)c1ccccc1 29.1 µM [falling, single point]
Cc1ccc(C)c(OCc2cc(C(=O)N(C)Cc3nccn3C)no2)c1 4.61 µM [activator, single point]
O=C(Nc1ccccc1)N1CC=C(c2ccc(F)cc2)CC1 3.26 µM [rising, partial curve]
CC(=O)c1c(C)[nH]c(C(=O)COc2ccc3c(C)cc(=O)oc3c2)c1C 1.46 µM [falling, partial curve, poor fit]
Cc1cc(C(=O)NCCCn2ccnc2)cs1 8.2 µM [activator, partial curve, poor fit]
COc1ccccc1OC(=O)CCN1c2ccccc2Sc2ccccc21 5.8 µM [activator, full curve]
CCC(=O)c1ccc(OCCn2cnc3ccccc32)cc1 0.184 µM [rising, full curve, poor fit]
CCOC(=O)c1cc(-c2ccccc2)nc2nc(N(CC)CC)sc12 29.1 µM [activator, single point]
COc1cccc(/C=C/C(=O)c2ccc3c(c2)OCCO3)c1OC 14.6 µM [falling, single point]
CCN(CC)S(=O)(=O)c1ccc(C)c(N=C=S)c1 6.51 µM [activator, single point]
COCc1c(C(=O)N/N=C\c2ccccn2)nnn1-c1nonc1N 3.26 µM [activator, single point]
Cc1c(C(=O)OC/C(O)=C(\C#N)c2nc3ccccc3[nH]2)oc2ccccc12 13 µM [falling, single point]
CN(C(=O)CSc1ncnc2sccc12)C1CCS(=O)(=O)C1 (stereo not given) 0.326 µM [falling, partial curve, poor fit]
O=C(Nc1nnc(-c2ccc3c(c2)OCCO3)o1)c1ccc(Cc2ccccc2)cc1 0.731 µM [falling, full curve, poor fit]
O=S(=O)(Nc1ccc(Cc2ccncc2)cc1)c1ccc(Cl)s1 29.1 µM [activator, single point]
CN1CCC(OC(=O)c2ccc(Cl)cc2Cl)CC1 29.1 µM [activator, single point]
COc1ccccc1/C=C/C(=O)N1CCCC1 0.0052 µM [falling, full curve, poor fit]
NS(=O)(=O)c1ccc(-c2ccc(/C=C3\SC(=O)NC3=O)o2)cc1 4.61 µM [activator, partial curve]
Cc1n[nH]c(=O)nc1NC(C)c1ccccc1 (stereo not given) 9.2 µM [activator, partial curve]
CN(CC(=O)Nc1ccc(F)c(F)c1F)C(=O)c1ccc(-n2cncn2)cc1 29.1 µM [activator, single point]

Potency, active:
C[C@@H]1CC[C@H](O)/C=C/C(=O)O[C@H](C)CC[C@H](O)/C=C/C(=O)O1 5.8 µM

Lipid storage change, negative = inhibition, inconclusive:
O=C(CCn1cnc(-c2ccccc2)c1-c1ccccc1)N/N=C/c1ccc(O)cc1 30%
Cn1c(Cc2ccccc2)nnc1SCC(=O)Nc1cccc(S(=O)(=O)NC2=NCCCCC2)c1 -4.72%
O=C(CNC(=O)Cc1ccccc1)N=Nc1c(O)[nH]c2ccccc12 104%
Cn1c(SCC(=O)Nc2ccccc2F)nnc1-c1cc2ccccc2o1 37.9%
COc1ccc(-c2nc(S(=O)(=O)c3ccccc3)c(N3CCOCC3)o2)cc1 -3.77%
O=S(=O)(c1ccc(Br)c2nsnc12)N1CCOCC1 -11.4%
O=C(COC(=O)COc1ccc(Cl)cc1Cl)NC1CCCC1 55%
CCN1CCN(C(=O)CCc2nc3ccccc3n2-c2ccccc2)CC1 -15.5%
CC(C)C[C@H](NC(=O)c1nc[nH]c1C(=O)N1CCNCC1)C(=O)OCc1ccccc1 3.32%
CC1=CC(C#N)(C#N)C(C#N)(C#N)C(c2ccccc2)N1 (stereo not given) 53.1%
CN1CCN(C(=O)c2cc(=O)c3cc(Cl)ccc3o2)CC1 11.6%
COc1cccc(OCC(O)CNC(=O)c2oc3ccc(C)cc3c2C)c1 (stereo not given) 101%
CCN(CC)S(=O)(=O)c1ccc(OC)c(NC(=S)Nc2ccc(C)c(C)c2)c1 15.7%
Cc1[nH]n(-c2cccc3ccccc23)c(=O)c1/C=N/c1sc2c(c1C#N)CCC2 10.2%
Cc1ccc(S(=O)(=O)CCC(=O)c2ccc(O)cc2O)cc1 106%
COC(=O)c1ccc2c(=O)n(-c3ccccc3)c(SCN3C(=O)c4ccccc4C3=O)nc2c1 -26.9%
COc1ccc(CC(=O)NNC(=O)CSc2nc(C)c(C)c(=O)[nH]2)cc1 1.87%
CC(C)Oc1ccc(CCc2nnc(SCC(=O)O)n2-c2ccccc2)cc1 -49.5%
CCC1(c2ccccc2)C(=O)NCNC1=O -22.2%
COCCn1c(SC2CCCCC2=O)nnc1-c1ccncc1 (stereo not given) 40.4%
COc1ccc(C(C)=O)c(Oc2nc(CN3CCOCC3)nc3scc(-c4cccs4)c23)c1 22.9%
COc1ccc(-c2cc(-c3nnc(COC(=O)c4ccncc4)o3)c3ccccc3n2)cc1OC 9.5%
Nc1nnc(SCC(=O)OCC(=O)c2ccccc2Br)s1 -7.71%
C/C(=N/N=C/c1ccc(N(C)C)cc1)c1ccccc1 -21.9%
CCOC(=O)c1nn(-c2ccc(C)cc2)c2nc(Nc3ccccc3)cc(=O)n12 154%
Cc1noc(C)c1Cc1c(Cl)cccc1Cl -35.7%
O=C(CSc1nc(-c2ccccc2)c(-c2ccccc2)o1)N1CCOCC1 -27.3%
O=C(CC1C(=O)NCCN1Cc1ccoc1)NCc1cccc(OC(F)(F)F)c1 (stereo not given) 9.42%
CCCCn1c(N)c(N(CC(C)C)C(=O)CC2OC(=O)c3ccccc32)c(=O)[nH]c1=O (stereo not given) 65.2%
COc1ccc(C2C=C(c3ccc(Br)cc3)Nc3nc(N4C(=O)CCC4=O)nn32)cc1 (stereo not given) -6.74% [at 9.22 µM]
CN(C)c1ccc(/C=C2/NC(=O)NC2=O)cc1 57.9%
Cc1ccc(Oc2ncccc2COC(=O)Nc2ccccc2C)cc1 48.5%
COc1ccc(NC(=O)CSCC(=O)Nc2cc(Cl)ccc2N2CCOCC2)cc1 -16.8%
CCC(=O)N1c2ccccc2NC2=C(C(=O)CCC2)C1c1cccnc1 (stereo not given) 11.2%
COC(=O)CCc1nc2cc(Cl)ccc2n(Cc2ccccc2)c1=O 6.82%
Cc1ccc(C(=O)OCC(=O)Nc2ccc3[nH]c(=O)[nH]c3c2)o1
CCOC(=O)n1n[n+]([O-])c2ccccc21 -20%
CCc1nc(SCC(=O)Nc2ccc(OC)cc2[N+](=O)[O-])n[nH]1 7.8%
Cc1ccc(Oc2nc(-c3ccccn3)nc3ccccc23)cc1 -8.99%
CCOC(=O)c1ccc(NC(=O)Nc2ncc(Cl)cc2Cl)cc1 16.7%
O=C(CCS(=O)(=O)c1ccccc1)Nc1ccc(Cl)cn1 56%
Cc1ccc(NC(=O)NNc2cccc(Cl)n2)cc1 -0.591%
O=C(CNS(=O)(=O)c1ccc(Br)cc1)OCc1cc(=O)n2cc(Br)ccc2n1 14.2%
Cc1ccc(SCC(=O)NC(C)c2ccccc2)cc1 (stereo not given) 75.4%
CCCc1cc(O)c2c(C)cc(=O)oc2c1 -9.9%
O=C(CCCN1C(=O)NC2(CCCC2)C1=O)Nc1ccc(Cl)c(S(=O)(=O)N2CCOCC2)c1 80.1%
O=S(=O)(Nc1cccnc1)c1ccc(Cl)cc1 -85.6%
Cc1ccc(NC(=O)COC(=O)c2nn(C)cc2Cl)cc1 -1.21%
O=C(CN(Cc1ccc(F)cc1)C(=O)c1csnn1)NCc1ccccc1 -62.4%
Cc1ccc(CC(=O)Nc2ccc(S(=O)(=O)N3CCOCC3)cc2)cc1 -23.8%

Arranged by molecular weight (smallest number first): some entries from above
Lipid storage change, negative = inhibition, inconclusive:
Cc1ccc(SCC(=O)NC(C)c2ccccc2)cc1 (stereo not given) 75.4%
CCOC(=O)c1ccc(NC(=O)Nc2ncc(Cl)cc2Cl)cc1 16.7%
COc1ccc(CC(=O)NNC(=O)CSc2nc(C)c(C)c(=O)[nH]2)cc1 1.87%
O=C(CSc1nc(-c2ccccc2)c(-c2ccccc2)o1)N1CCOCC1 -27.3%
CC(C)Oc1ccc(CCc2nnc(SCC(=O)O)n2-c2ccccc2)cc1 -49.5%

Next part.

Lipid storage change, negative = inhibition, inactive:
Cc1cccc(NC(=O)CSc2nnnn2C)n1 -8.83%
CC(C)c1cc(C(=O)N2CCCC(C(=O)c3ccc4ccccc4c3)C2)on1 (stereo not given) 6.79%
Clc1ccc(NNc2ccnc3cc(Cl)ccc23)cc1 7.38%
O=C(CCC(=O)NNC(=O)COc1ccc(Br)cc1)NCc1ccccc1 -19.6%
COc1ccc(-c2nnc3ccc(SCC(=O)Nc4cc(C)on4)nn23)cc1 0.462%
O=c1c2ccccc2nc(SCc2nc3ccccc3s2)n1CCCO 0.263%

outcome, inactive:
COC(=O)[C@H](CCSC)NC(=O)Nc1cc(C)ccc1C inactive [at 46.1 µM]
